Data as given in PubChem BioAssay AID504774 (Drosophila RNAi Screening Center, 2011).

Screen: 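Genes required for cells to withstand methyl methanesulphonate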 (primary screen)
Cell system: Drosophila Kc167 cells
Reagents: long dsRNA against Drosophila genes, about 0.25 µg dsRNA per well
Duration: about 6 days: 3 days knock-down, then 3 days with or without MMS
Treatment: methyl methanesulphonate 0.004% (w/v) for 3 days after knock-down
Measured: 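Viability in wells given MMS, read as ATP luminescence, normalised by quantiles plate by plate and averaged across replicates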
Scale: mean viability with MMS and viability with MMS: higher = more surviving cells after MMS
The deposit covers about 23,000 reagents; below is a random part of those with a known target gene and a result. 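Values are quantile-normalised luminescence on an arbitrary scale; higher means more cells surviving MMS.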 The numbers tell different reagents against one gene apart.

| gene knocked down | reagent no. | mean viability with MMS | viability with MMS, replicate 1 | viability with MMS, replicate 2 |
| --- | --- | --- | --- | --- |
| Sap47 (GeneID 41938) | 1 | 3.39e6 | 3.79e6 | 3.89e6 |
| ND6 (retired record) (GeneID 192479) | 1 | 3.58e6 | 3.91e6 | 4.19e6 |
| ome (GeneID 44297) | 1 | 3.55e6 | 4.01e6 | 4.03e6 |
| ome (GeneID 44297) | 2 | 3.70e6 | 4.07e6 | 4.24e6 |
| ome (GeneID 44297) | 3 | 3.66e6 | 4.23e6 | 4.02e6 |
| sds22 (GeneID 42091) | 1 | 3.42e6 | 3.93e6 | 3.80e6 |
| CG8407 (GeneID 36303) | 1 | 3.69e6 | 3.78e6 | 4.26e6 |
| CG6066 (GeneID 43267) | 1 | 3.72e6 | 4.26e6 | 4.13e6 |
| CG6066 (GeneID 43267) | 2 | 3.38e6 | 3.84e6 | 3.94e6 |
| lectin-21Ca (GeneID 53552) | 1 | 3.56e6 | 4.11e6 | 3.96e6 |
| Doc3 (GeneID 39036) | 1 | 3.41e6 | 3.84e6 | 3.87e6 |
| sigmar (GeneID 37751) | 1 | 3.64e6 | 3.90e6 | 4.29e6 |
| CG9269 (GeneID 41663) | 1 | 3.52e6 | 3.88e6 | 4.10e6 |
| eca (GeneID 41177) | 1 | 3.62e6 | 3.90e6 | 4.26e6 |
| CG9281 (GeneID 32508) | 1 | 3.46e6 | 4.25e6 | 3.80e6 |
| CG33169 (GeneID 40504) | 1 | 3.72e6 | 4.14e6 | 4.19e6 |
| CG32160 (retired record) (GeneID 317889) | 1 | 3.57e6 | 4.05e6 | 4.01e6 |
| Arf1 (GeneID 40506) | 1 | 3.66e6 | 4.16e6 | 4.10e6 |
| CG9646 (GeneID 36918) | 1 | 3.47e6 | 3.86e6 | 3.99e6 |
| mamo (GeneID 32353) | 1 | 3.43e6 | 3.88e6 | 3.87e6 |
| CG4768 (GeneID 32666) | 1 | 3.80e6 | 3.65e6 | 3.69e6 |
| Acadvl (GeneID 37217) | 1 | 3.79e6 | 4.32e6 | 4.26e6 |
| CG7910 (GeneID 40956) | 1 | 3.49e6 | 4.01e6 | 3.93e6 |
| blp (GeneID 41937) | 1 | 3.41e6 | 3.91e6 | 3.79e6 |
| Vps13B (GeneID 43550) | 1 | 3.52e6 | 4.00e6 | 3.96e6 |
| EloB (GeneID 42435) | 1 | 3.59e6 | 4.04e6 | 4.10e6 |
| Eig71Ec (GeneID 39703) | 1 | 3.64e6 | 4.14e6 | 4.10e6 |
| Nep2 (GeneID 40588) | 1 | 3.39e6 | 3.83e6 | 3.82e6 |
| Nep2 (GeneID 40588) | 2 | 3.57e6 | 4.16e6 | 3.96e6 |
| CG13558 (GeneID 37719) | 1 | 3.60e6 | 4.03e6 | 4.15e6 |
| ppk29 (GeneID 37844) | 1 | 3.65e6 | 4.24e6 | 4.03e6 |
| Pka-C2 (GeneID 43644) | 1 | 3.45e6 | 3.85e6 | 3.92e6 |
| Pka-C2 (GeneID 43644) | 2 | 3.79e6 | 4.30e6 | 4.27e6 |
| CG31800 (GeneID 318947) | 1 | 3.50e6 | 3.94e6 | 4.01e6 |
| ITP (GeneID 37921) | 1 | 3.50e6 | 4.15e6 | 3.78e6 |
| eIF4A (GeneID 33835) | 1 | 2.88e6 | 3.33e6 | 3.31e6 |
| CG33514 (GeneID 3346239) | 1 | 3.35e6 | 3.63e6 | 3.63e6 |
| CG33514 (GeneID 3346239) | 2 | 3.46e6 | 3.90e6 | 3.95e6 |
| CG33514 (GeneID 3346239) | 3 | 3.57e6 | 4.07e6 | 4.05e6 |
| fid (GeneID 43148) | 1 | 3.48e6 | 3.96e6 | 3.92e6 |
| fid (GeneID 43148) | 2 | 3.50e6 | 3.92e6 | 3.99e6 |
| lush (GeneID 40136) | 1 | 3.55e6 | 3.84e6 | 4.21e6 |
| Gclm (GeneID 248194) | 1 | 3.14e6 | 3.68e6 | 3.65e6 |
| Blos2 (GeneID 39234) | 1 | 3.64e6 | 4.11e6 | 4.10e6 |
| mub (GeneID 40436) | 1 | 3.51e6 | 3.98e6 | 3.96e6 |
| CG8507 (GeneID 41205) | 1 | 3.44e6 | 3.85e6 | 3.98e6 |

4 of these entries, reformatted.
{"gene knocked down":"ND6 (retired record) (GeneID 192479)","reagent no.":1,"mean viability with MMS":3.58e6,"viability with MMS, replicate 1":3.91e6,"viability with MMS, replicate 2":4.19e6}
{"gene knocked down":"ome (GeneID 44297)","reagent no.":1,"mean viability with MMS":3.55e6,"viability with MMS, replicate 1":4.01e6,"viability with MMS, replicate 2":4.03e6}
{"gene knocked down":"ome (GeneID 44297)","reagent no.":2,"mean viability with MMS":3.70e6,"viability with MMS, replicate 1":4.07e6,"viability with MMS, replicate 2":4.24e6}
{"gene knocked down":"ome (GeneID 44297)","reagent no.":3,"mean viability with MMS":3.66e6,"viability with MMS, replicate 1":4.23e6,"viability with MMS, replicate 2":4.02e6}
